This passage reports binding results from paper doi:10.1101/330878.

No constants are given. Whether binding was seen depends on the method and setting. Binding can be weak; no strength is given.

This assay has as its target DipA (c-di-GMP phosphodiesterase PA5017) (Pseudomonas aeruginosa) (UniProt Q9HUF2). The assay can be described thus: two-hybrid.

For “ParP (Par-like partitioning protein of P. aeruginosa) (from UniProt G3XCY3)”, the binding entry is “binds”.
